# Test results from PubChem BioAssay AID743266 (National Center for Advancing Translational Sciences (NCATS), 2014).
# By UniProt entry, the sequences of proteins in these tests, tags left out. Where a name states a change or a piece, a line headed by the entry shows the natural chain unless it says otherwise.
# UniProt Q03431: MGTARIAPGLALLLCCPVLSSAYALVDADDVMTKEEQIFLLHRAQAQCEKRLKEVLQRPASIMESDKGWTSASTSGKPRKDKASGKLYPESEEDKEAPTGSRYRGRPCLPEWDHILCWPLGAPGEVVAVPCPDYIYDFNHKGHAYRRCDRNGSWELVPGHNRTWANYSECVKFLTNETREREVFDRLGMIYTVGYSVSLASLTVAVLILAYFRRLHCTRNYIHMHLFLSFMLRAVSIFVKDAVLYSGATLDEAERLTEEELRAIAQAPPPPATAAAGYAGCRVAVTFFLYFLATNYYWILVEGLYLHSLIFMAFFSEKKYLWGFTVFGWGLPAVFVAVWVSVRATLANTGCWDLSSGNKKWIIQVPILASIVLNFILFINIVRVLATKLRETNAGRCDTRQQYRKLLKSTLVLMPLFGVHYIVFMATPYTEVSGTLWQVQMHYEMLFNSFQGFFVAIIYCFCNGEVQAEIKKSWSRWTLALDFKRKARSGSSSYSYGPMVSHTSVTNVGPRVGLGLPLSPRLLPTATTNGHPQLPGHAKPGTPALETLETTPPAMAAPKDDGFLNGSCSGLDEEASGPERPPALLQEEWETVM
# Screen size: about 410,000 compounds; about 310 (0.076%) were called active. The inconclusive results got no clear call from the source; some entries with a clear call stand among them for comparison. Calls come from the whole dose curve; as a rule, active = well fitted activation curve with a large enough effect; inconclusive = small, poorly fitted or top-dose-only effect, or another doubt; inactive = no such curve, though single readings can be large or run the other way. Potencies of inconclusive entries are doubtful fits and often do not repeat.
# Target: Parathyroid hormone/parathyroid hormone-related peptide receptor (Homo sapiens) (UniProt Q03431)
# Assay: qHTS for PTHR1 Agonists: Primary Screen; note: nearly all actives have a fitted effect of over 55% in size
# Conditions: HEK293 GP2 PTHR1 cells, GloSensor cAMP luminescence, 1 h; activation: at 115 µM (top of the series) unless noted; series mostly up to 115 µM
# How it was run: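 HEK-293-derived GP2 cells expressing PTHR1 and a GloSensor cAMP reporter, 3,000/well, plated overnight, given luciferin plus IBMX (each 0.5 mM as added) for 1 h at 37 °C, then compound for 1 h at 37 °C. Luminescence was read after 15 min at room temperature.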
# Potency is the fitted concentration of half-maximal effect.
Structure (SMILES),Potency,activation
Cn1c(=O)c2c(nc(NCCNC(=O)c3ccco3)n2Cc2ccccc2Cl)n(C)c1=O,"inconclusive: 25.1 µM [activator, partial curve, poor fit]",–
CC12CCC(C/C1=N/NC(=O)Nc1ccccc1)C2(C)C (stereo not given),inactive,–
COc1cc(CN2CCC(C)CC2)ccc1OCc1ccccc1,–,inconclusive: 52.7% [activator]
O=C(CCOc1ccccc1)Nc1ccnn1C1CCN(CCc2ccccc2)CC1,"inconclusive: 70.8 µM [activator, partial curve, poor fit]",–
c1ccc2c3c([nH]c2c1)C(C1CCCCC1)N(Cc1ncc[nH]1)CC3 (stereo not given),inactive,–
COCCCNC(=O)CSc1nc(-c2ccccc2)[nH]c1-c1ccc(C)cc1,–,inconclusive: 37.1% [activator]
CCOC(=O)C1CCN(C(=O)c2ccc(OC3CCN(C(=O)COC)CC3)cc2)CC1,–,inconclusive: 61% [activator]
Cc1cn(CC(=O)NCC2CCCO2)c(=O)[nH]c1=O (stereo not given),"inconclusive: 15.8 µM [activator, partial curve, poor fit]",–
CC(C)CC(=O)NNC(=O)c1ccc(Cl)cc1,inactive,–
CCN(Cc1cnn(C)c1)C(=O)c1ccc2nc(Cc3ccccc3F)oc2c1,inactive,–
CCOc1ccc(CCNC(=O)CCNC(=O)c2ccco2)cc1OCC,"inconclusive: 2.24 µM [activator, full curve, poor fit]",–
COc1ccc(-c2nc3n(n2)C(=O)CC(c2ccc(Cl)cc2)S3)cc1 (stereo not given),"inconclusive: 141 µM [activator, single point]",–
O=C(NCC(=O)N(Cc1ccccc1)C(C(=O)NCC1CCCO1)c1ccccc1)c1cccs1 (stereo not given),"inconclusive: 39.8 µM [activator, single point]",–
CC(C)[C@H](NC(=O)N1CC(=O)Nc2ccccc21)C(=O)N1CCC[C@H]1C(=O)O,"inconclusive: 56.2 µM [activator, single point]",–
CC(C)N1CCN(Cc2ccc(C#CCCO)cc2)CC1CCO (stereo not given),inactive,–
COCC(=O)Oc1c(Sc2ccccc2[N+](=O)[O-])c(C)nn1C(C)(C)C,inactive,–
COc1cc(C(=O)NCC(=O)OCc2ccc(F)cc2)cc(OC)c1OC,"inconclusive: 44.7 µM [activator, single point]",–
Nc1cccc(S(=O)(=O)c2cccc(N)c2)c1,inactive,–
CCc1ccccc1NC(=O)CSc1nccn1C,"inconclusive: 20 µM [activator, partial curve, poor fit]",–
COc1ccc(/C=C/C(=O)O)cc1S(=O)(=O)N1CCc2ccccc2C1,"inconclusive: 4.47 µM [activator, partial curve, poor fit]",–
c1ccc2c(OCCCCN3CCOCC3)cccc2c1,inactive,–
FC(F)(F)c1nc2ccccc2[nH]1,inactive,–
Clc1ccc(SCNc2ccccc2Cl)cc1,inactive,–
Cc1ccc(/C=N/NC(=O)c2nn(C)cc2Cl)cc1,inactive,–

Structure (SMILES),Potency,activation
CC1CCCCC1NC(=O)COC(=O)CCC(=O)c1cccs1 (stereo not given),"inconclusive: 126 µM [activator, single point]",–
CN(C)c1ccc2nc3ccc(=O)cc-3sc2c1,inactive,–
Cc1c(N2CCCC2)cc2c(c1N)C(C)(C)CC2(C)C,inactive,–
Cc1ccc(CN2CCSc3sccc3C2=O)cc1,"inconclusive: 112 µM [activator, single point]",–
Nc1nc(-c2cccc(Br)c2)cs1,active: 5.62 µM,–
Cc1ccc(C(=O)O)c(C(=O)Nc2nc3ccccc3s2)c1,inactive,–
COc1ccc(C(=O)N2N=C(c3cccs3)CC2c2ccccc2O)cc1 (stereo not given),–,inconclusive: 32.5% [activator]
O=C1CCC(C(=O)OCC(=O)Nc2ccc(Cl)cc2C(F)(F)F)=NN1,"inconclusive: 11.2 µM [activator, partial curve, poor fit]",–
Cc1cccc(Cn2c(SCc3ccc(C(=O)NCc4cccs4)cc3)nc3ccncc32)c1,inactive,–
COC(=O)c1ccc(NC(=O)c2nn(C)c3c2COc2ccccc2-3)cc1,"inconclusive: 112 µM [activator, partial curve, poor fit]",–
Cc1ccc(NC(=O)Cn2c(=O)n(CCc3ccccc3)c(=O)c3sc4ccccc4c32)cc1C,–,inconclusive: -60.5% [activator]
O=C(NCCCN1CCCC1)c1ccc(CS(=O)(=O)c2ccc(Cl)cc2)o1,inactive,–
Cc1ccc(S(=O)(=O)NCCC(=O)OCC(=O)Nc2cccc(Cl)c2)cc1,"inconclusive: 112 µM [activator, single point]",–
CCn1c(=O)cc(OCC(=O)Nc2ccc3c(c2)OCCO3)c2ccccc21,–,inconclusive: 5.66% [activator] [at 57.5 µM]
CCOC(=O)CSc1nc2cc3c(cc2c(=O)n1CCCCCC(=O)NCc1ccc2c(c1)OCO2)OCO3,"inconclusive: 79.4 µM [activator, partial curve, poor fit]",–
Cc1ccc(-n2c(=O)[nH]c3sc4c(c3c2=O)CCNC4)cc1C,inactive,–
CCCCc1nn2c(C)c(-c3ccc(OCC)cc3)nc2s1,inactive,–
COc1cccc(N2CCN(c3ccc4nnc(CCC(=O)Nc5ccc(C)cn5)n4n3)CC2)c1,"inconclusive: 44.7 µM [activator, partial curve, poor fit]",–
COc1ccc(C(=O)N2CCCC(CCC(=O)NCc3ccccc3F)C2)c(OC)n1 (stereo not given),–,inconclusive: -31.6% [activator]
C[C@@H](C(=O)NCc1ccco1)N1C(=O)N2CCc3c([nH]c4ccccc34)[C@@]2(C)C1=O,–,inconclusive: -78.6% [activator]
c1ccc2c(c1)nc1n2CCN1CCNC1CCCCC1,inactive,–
Cc1cc(-c2cc(-c3ccc(Cl)cc3)on2)nc(NC2CCCC2)n1,"inconclusive: 112 µM [activator, partial curve, poor fit]",–
CCCS(=O)(=O)c1nc(S(=O)(=O)c2ccc(C)cc2)c(NC(C)c2ccccc2)s1 (stereo not given),"inconclusive: 15.8 µM [activator, partial curve, poor fit]",–
O=C(COC(=O)Cn1c(C(F)(F)F)nc2ccccc21)Nc1ccc2c(c1)OCCO2,"inconclusive: 2.82 µM [activator, partial curve, poor fit]",–

# Pulled one by one from the list above:
Structure (SMILES),Potency,activation
CCOC(=O)CSc1nc2cc3c(cc2c(=O)n1CCCCCC(=O)NCc1ccc2c(c1)OCO2)OCO3,"inconclusive: 79.4 µM [activator, partial curve, poor fit]",–
Cn1c(=O)c2c(nc(NCCNC(=O)c3ccco3)n2Cc2ccccc2Cl)n(C)c1=O,"inconclusive: 25.1 µM [activator, partial curve, poor fit]",–
COCCCNC(=O)CSc1nc(-c2ccccc2)[nH]c1-c1ccc(C)cc1,–,inconclusive: 37.1% [activator]

# Further compounds follow:

Structure (SMILES),Potency,activation
O=C(NCCS(=O)(=O)N1CCC2(CC1)OCCO2)c1ccc(F)cc1,"inconclusive: 126 µM [activator, single point]",–
O=C(Nc1cc([N+](=O)[O-])ccc1O)c1ccc2c(c1)C(=O)N(Cc1ccco1)C2=O,–,inconclusive: -47.7% [activator]
COc1ccc2cc(C(=O)N3CCN(C)CC3)[nH]c2c1,"inconclusive: 100 µM [activator, single point]",–
COc1ccccc1C(=O)NCC(=O)OCC(=O)Nc1nnc(-c2ccccc2)o1,"inconclusive: 8.91 µM [activator, full curve, poor fit]",–
Cc1ccc(NC(=O)N2CCc3c([nH]c4ccccc34)C2c2ccccc2F)c(Cl)c1 (stereo not given),"inconclusive: 141 µM [activator, single point]",–
Cc1cccc(C)c1OCc1cc(=O)n2ccsc2n1,"inconclusive: 31.6 µM [activator, single point]",–
O=C(CNC(=O)c1ccco1)Nc1ccc(OC(F)F)cc1,–,inconclusive: 55.9% [activator]
CCNC(=O)C1CCCc2c1[nH]c1ccc(Cl)cc21 (stereo not given),inactive,–
Cn1c(=O)c2c(c3ccccc31)OC(=O)CC2c1ccccc1 (stereo not given),"inconclusive: 31.6 µM [activator, full curve, poor fit]",–
COc1ccc(NC(=O)c2ccc3c(=O)n4nc(Nc5ccccc5C)sc4nc3c2)cc1,"inconclusive: 44.7 µM [activator, single point]",–
COc1ccc(NC(=S)N(CCN2CCOCC2)Cc2ccccc2F)cc1,"inconclusive: 100 µM [activator, single point]",–
O=C(Nc1ccc(-c2ccc([N+](=O)[O-])cc2)cc1)c1ccccc1F,–,inconclusive: 35.9% [activator]
CCCn1c2ccccc2c2cnn(CC(=O)N(CC)CC)c(=O)c21,"inconclusive: 3.55 µM [activator, full curve]",–
NC(=O)CSc1nc2cccnc2n1-c1ccc(F)cc1,–,inconclusive: 32.4% [activator]
Cc1cc(=O)n(C(C)C(=O)NCc2ccccc2Cl)c2c1c(C)nn2-c1ccccc1 (stereo not given),"inconclusive: 5.62 µM [activator, partial curve, poor fit]",–
CCn1cc(C(=O)NCc2ccccc2)c(=O)c2cc(S(=O)(=O)N3CCOCC3)ccc21,–,inconclusive: 33.5% [activator]
CC(C)C[C@H]1CNC(=O)C(=O)N1C[C@H]1CCCN1C[C@H](CC(C)C)N1C[C@H](Cc2ccccc2)N(CCc2ccccc2)C(=O)C1=O,–,inconclusive: 35.7% [activator]
Cc1cccc(N2CCN(C(=O)c3cn(C)c(=O)c4c3c3ccccc3n4C)CC2)c1C,"inconclusive: 15.8 µM [activator, partial curve, poor fit]",–
CC(C)c1cc(-c2cc(-c3ccc(Cl)cc3)on2)nc(NC2CCCC2)n1,"inconclusive: 126 µM [activator, single point]",–
CCOc1ccc(C(=O)C(CCC(CN(C)C)C(=O)c2ccc(OCC)cc2)CN(C)C)cc1 (stereo not given),–,inconclusive: -55.1% [activator]
CCOC1=C2[C@H](c3ccc(Cl)cc3)N(S(=O)(=O)c3ccc(C)cc3)C[C@H]2n2c(=O)n(-c3ccccc3)c(=O)n2C1,inactive,–
Cc1ccc(-n2c(Cc3cccn3C)nnc2SCC(=O)Nc2nnc(C)s2)cc1,–,inconclusive: 68.9% [activator] [at 57.5 µM]
